Assay [1] has as its target T1, human IL-17RC extracellular domain (human) (UniProt Q8NAC3).
T1 sequence: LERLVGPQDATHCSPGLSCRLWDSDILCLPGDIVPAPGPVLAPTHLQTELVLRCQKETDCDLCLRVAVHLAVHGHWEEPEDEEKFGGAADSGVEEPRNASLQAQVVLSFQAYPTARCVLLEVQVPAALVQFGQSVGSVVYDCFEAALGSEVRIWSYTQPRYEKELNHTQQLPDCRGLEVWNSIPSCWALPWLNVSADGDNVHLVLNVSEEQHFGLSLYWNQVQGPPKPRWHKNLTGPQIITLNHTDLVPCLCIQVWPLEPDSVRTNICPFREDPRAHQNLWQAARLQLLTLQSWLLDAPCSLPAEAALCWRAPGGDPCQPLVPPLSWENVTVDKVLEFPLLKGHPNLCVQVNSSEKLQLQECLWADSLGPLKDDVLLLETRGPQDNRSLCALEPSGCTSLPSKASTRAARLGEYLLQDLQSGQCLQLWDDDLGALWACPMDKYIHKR
In words: SPR; Biacore 8K; IL-17RC ECD amine-coupled on a CM4 chip (about 500 RU); cytokines as analytes in PBS pH 7.4, 3 mM EDTA, 0.05% Tween20; 20 °C, 30 µl/min; 1:1 Langmuir model or steady-state analysis; both purified. Background: SPR reads the build-up and loss of mass on a sensor chip optically.

For assay [2], the target named is human IL-17RA extracellular domain (human), Q96F46. As to the kind of experiment: crystal structure; IL-17A/F with IL-17RA ECD, deglycosylated complex; monoclinic crystals, 0.1 M HEPES pH 7.5, 15% PEG MME 5000, 0.05 M ammonium acetate, 20 °C; 3.3 Å; two complexes in the asymmetric unit; both purified. The settings on record: remark: other sources report otherwise.

Assay [3] has the same target. In words: SPR; Biacore 8K; biotinylated IL-17RA ECD immobilised on a streptavidin chip (about 500 RU); cytokines as analytes in PBS pH 7.4, 3 mM EDTA, 0.05% Tween20; 20 °C, 30 µl/min; 1:1 Langmuir model or steady-state analysis; both purified. As to conditions: remark: other sources report otherwise.

Results are given in words; binding and its absence hold for the method and conditions named. Some entries that bind do so weakly or less than the wild type.

This passage reports binding results from paper PMC5566378.

B1: human IL-17F homodimer (ligand, UniProt Q96PD4 31-163)
chain: RKIPKVGHTFFQKPESCPPVPGGSMKLDIGIINENQRVSMSRNIESRSTSPWNYTVTWDPNRYPSEVVQAQCRNLGCINAQGKEDISMNSVPIQQETLVVRRKHQGCSVSFQLEKVLVTVGCTCVTPVIHHVQ
For B1, the binding entry in assay [1] is listed as “binds”.

B2: IL-17F chain of the human IL-17A/F heterodimer, Q96PD4 31-163 (protein)
chain: B1 chain
modifications: here or on the partner: N-linked glycosylation at Asn83 (seen in the crystal); biotin on the Avi-tag (E. coli BirA), for the SPR measurements only
Consider B2, for which the binding result in assay [2] is “binds”.

B3: human IL-17F homodimer, Q96PD4 31-163 (protein)
chain: B1 chain
modifications: here or on the partner: biotin on the Avi-tag (E. coli BirA), for the SPR measurements only
Regarding B3, the binding result in assay [3] is recorded as “binds”.
